Measurements published in paper PMC6675906.
No constants are given. Whether binding was seen depends on the method and setting. Binding seen in cells or lysates may run through a third protein. Where a sequence is shown, tags or fusion partners need not be part of it.

Chains of the proteins cited; added tags and fusions are not shown.
UniProt P68871: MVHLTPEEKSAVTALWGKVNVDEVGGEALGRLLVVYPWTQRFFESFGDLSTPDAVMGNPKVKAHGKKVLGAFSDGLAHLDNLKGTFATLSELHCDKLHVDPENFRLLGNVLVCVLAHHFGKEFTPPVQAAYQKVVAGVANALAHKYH

B1: retinoic acid-inducible gene I (Myc-RIG-I) (protein, UniProt O95786 1-925)
chain: MTTEQRRSLQAFQDYIRKTLDPTYILSYMAPWFREEEVQYIQAEKNNKGPMEAATLFLKFLLELQEEGWFRGFLDALDHAGYSGLYEAIESWDFKKIEKLEEYRLLLKRLQPEFKTRIIPTDIISDLSECLINQECEEILQICSTKGMMAGAEKLVECLLRSDKENWPKTLKLALEKERNKFSELWIVEKGIKDVETEDLEDKMETSDIQIFYQEDPECQNLSENSCPPSEVSDTNLYSPFKPRNYQLELALPAMKGKNTIICAPTGCGKTFVSLLICEHHLKKFPQGQKGKVVFFANQIPVYEQQKSVFSKYFERHGYRVTGISGATAENVPVEQIVENNDIIILTPQILVNNLKKGTIPSLSIFTLMIFDECHNTSKQHPYNMIMFNYLDQKLGGSSGPLPQVIGLTASVGVGDAKNTDEALDYICKLCASLDASVIATVKHNLEELEQVVYKPQKFFRKVESRISDKFKYIIAQLMRDTESLAKRICKDLENLSQIQNREFGTQKYEQWIVTVQKACMVFQMPDKDEESRICKALFLYTSHLRKYNDALIISEHARMKDALDYLKDFFSNVRAAGFDEIEQDLTQRFEEKLQELESVSRDPSNENPKLEDLCFILQEEYHLNPETITILFVKTRALVDALKNWIEGNPKLSFLKPGILTGRGKTNQNTGMTLPAQKCILDAFKASGDHNILIATSVADEGIDIAQCNLVILYEYVGNVIKMIQTRGRGRARGSKCFLLTSNAGVIEKEQINMYKEKMMNDSILRLQTWDEAVFREKILHIQTHEKFIRDSQEKPKPVPDKENKKLLCRKCKALACYTADVRVIEECHYTVLGDAFKECFVSRPHPKPKQFSSFEKRAKIFCARQNCSHDWGIHVKYKTFEIPVIKIESFVVEDIATGVQTLYSKWKDFHFEKIPFDPAEMSK
B2: melanoma differentiation-associated gene 5 (Myc-MDA5) (protein, UniProt Q9BYX4 1-1025)
chain: MSNGYSTDENFRYLISCFRARVKMYIQVEPVLDYLTFLPAEVKEQIQRTVATSGNMQAVELLLSTLEKGVWHLGWTREFVEALRRTGSPLAARYMNPELTDLPSPSFENAHDEYLQLLNLLQPTLVDKLLVRDVLDKCMEEELLTIEDRNRIAAAENNGNESGVRELLKRIVQKENWFSAFLNVLRQTGNNELVQELTGSDCSESNAEIENLSQVDGPQVEEQLLSTTVQPNLEKEVWGMENNSSESSFADSSVVSESDTSLAEGSVSCLDESLGHNSNMGSDSGTMGSDSDEENVAARASPEPELQLRPYQMEVAQPALEGKNIIICLPTGSGKTRVAVYIAKDHLDKKKKASEPGKVIVLVNKVLLVEQLFRKEFQPFLKKWYRVIGLSGDTQLKISFPEVVKSCDIIISTAQILENSLLNLENGEDAGVQLSDFSLIIIDECHHTNKEAVYNNIMRHYLMQKLKNNRLKKENKPVIPLPQILGLTASPGVGGATKQAKAEEHILKLCANLDAFTIKTVKENLDQLKNQIQEPCKKFAIADATREDPFKEKLLEIMTRIQTYCQMSPMSDFGTQPYEQWAIQMEKKAAKEGNRKERVCAEHLRKYNEALQINDTIRMIDAYTHLETFYNEEKDKKFAVIEDDSDEGGDDEYCDGDEDEDDLKKPLKLDETDRFLMTLFFENNKMLKRLAENPEYENEKLTKLRNTIMEQYTRTEESARGIIFTKTRQSAYALSQWITENEKFAEVGVKAHHLIGAGHSSEFKPMTQNEQKEVISKFRTGKINLLIATTVAEEGLDIKECNIVIRYGLVTNEIAMVQARGRARADESTYVLVAHSGSGVIEHETVNDFREKMMYKAIHCVQNMKPEEYAHKILELQMQSIMEKKMKTKRNIAKHYKNNPSLITFLCKNCSVLACSGEDIHVIEKMHHVNMTPEFKELYIVRENKALQKKCADYQINGEIICKCGQAWGTMMVHKGLDLPCLKIRNFVVVFKNNSTKKQYKKWVELPITFPNLDYSECCLFSDED

Target: human hemoglobin subunit beta (3×Flag-hHB) (human) (UniProt P68871)
Experiment: co-IP; HEK293T cells cotransfected with p3×Flag-hHB and pMyc-RIG-I or pMyc-MDA5, 48 h; lysed in NP-40 buffer with 1 mM PMSF at 4°C; precleared with protein G-agarose; IP with anti-Flag M2 affinity gel or protein G-agarose with anti-Myc MAb overnight at 4°C; Western blot

Binder | binding
B1 | no binding
B2 | no binding
